Values of other authors in patent publication US20160361357A1, “STABLE HIGH CONCENTRATION STRONTIUM COMPOUNDS AND FORMULATIONS FOR TOPICAL APPLICATION” (Cosmederm Bioscience, Inc., priority 2015, published 2016).
Some of these results come from one statement about several compounds together.

Settings: oral drugs

Structure (SMILES)	patients with side effects such as somnolence, dizziness and changes in mentation
NCC1(CC(=O)O)CCCCC1 [gabapentin]	more than 25%
CC(C)C[C@H](CN)CC(=O)O [pregabalin]	more than 25%
